# From the supplement of paper PMC8728848
# The other results are listed elsewhere or left out.
# B1: CD23 (Homo sapiens) (protein)
# chain: MELQVSSGFVCNTCPEKWINFQRKCYYFGKGTKQWVHARYACDDMEGQLVSIHSPEEQDFLTKRASHTGSWIGLRNLDLKGEFIWVDGSHVDYSNWAPGEPTSRSQSEDCVMMRGSGRWNDAFCDRKLGAWVCDRLATCTPPASEGSAESMGPDSRPDPDGRLPTPSAPLHS
# Columns and labels:
# Assay in all cases: glycan array binding signal (z-score within array); higher = stronger binding
# Details in all cases: glycan notation: IUPAC condensed, linker removed; mutation: H213R,G256S
# Neu5Ac(a2-3)GalNAc = target: Neu5Ac(a2-3)GalNAc
# How it was run: (§1)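 Glycan array data were curated from 3228 arrays in the Consortium for Functional Glycomics database and kept only where the protein sequence was available. Glycan names were converted to IUPAC-condensed notation, and columns mapping to the same glycan were averaged. The binding signal is a within-array Z-score, averaged across arrays of the same protein sequence at different concentrations or buffers and across linkers. Negative Z-scores can be read as non-binding.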
# [1] = target: Neu5Ac(a2-3)GalNAc(b1-4)GlcNAc
# How it was run: as §1
# [2] = target: Neu5Ac(a2-3)[GalNAc(b1-4)]Gal(b1-4)Glc
# How it was run: as §1
# [3] = target: Neu5Ac(a2-3)[GalNAc(b1-4)]Gal(b1-4)GlcNAc
# How it was run: as §1
# [4] = target: Neu5Ac(a2-3)[Neu5Ac(a2-6)]GalNAc
# How it was run: as §1
# Neu5Ac(a2-6)Gal = target: Neu5Ac(a2-6)Gal
# How it was run: as §1
# Neu5Ac(a2-6)Gal(b1-4)Glc = target: Neu5Ac(a2-6)Gal(b1-4)Glc
# How it was run: as §1
# [5] = target: Neu5Ac(a2-6)Gal(b1-4)GlcNAc
# How it was run: as §1
# [6] = target: Neu5Ac(a2-6)Gal(b1-4)GlcNAc(b1-2)Man(a1-3)[Neu5Ac(a2-6)Gal(b1-4)GlcNAc(b1-2)Man(a1-6)]Man(b1-4)GlcNAc(b1-4)GlcNAc
# How it was run: as §1
# [7] = target: Neu5Ac(a2-6)Gal(b1-4)GlcNAc(b1-3)Gal(b1-4)GlcNAc
# How it was run: as §1
# [8] = target: Neu5Ac(a2-6)Gal(b1-4)GlcNAc(b1-3)Gal(b1-4)[Fuc(a1-3)]GlcNAc(b1-3)Gal(b1-4)[Fuc(a1-3)]GlcNAc
# How it was run: as §1
# [9] = target: Neu5Ac(a2-6)Gal(b1-4)GlcNAc6S
# How it was run: as §1
# Neu5Ac(a2-6)GalNAc = target: Neu5Ac(a2-6)GalNAc
# How it was run: as §1
# [10] = target: Neu5Ac(a2-6)GalNAc(b1-4)GlcNAc
# How it was run: as §1
# Neu5Ac(a2-8)Neu5Ac = target: Neu5Ac(a2-8)Neu5Ac
# How it was run: as §1
# [11] = target: Neu5Ac(a2-8)Neu5Ac(a2-3)Gal(b1-4)Glc
# How it was run: as §1
# [12] = target: Neu5Ac(a2-8)Neu5Ac(a2-3)[GalNAc(b1-4)]Gal(b1-4)Glc
# How it was run: as §1
# [13] = target: Neu5Ac(a2-8)Neu5Ac(a2-8)Neu5Ac
# How it was run: as §1
# [14] = target: Neu5Ac(a2-8)Neu5Ac(a2-8)Neu5Ac(a2-3)Gal(b1-4)Glc
# How it was run: as §1
# [15] = target: Neu5Ac(a2-8)Neu5Ac(a2-8)Neu5Ac(a2-3)[GalNAc(b1-4)]Gal(b1-4)Glc
# How it was run: as §1
# [16] = target: Neu5Ac(a2-8)Neu5Ac(a2-8)Neu5Ac(a2-8)Neu5Ac(a2-3)[GalNAc(b1-4)]Gal(b1-4)Glc
# How it was run: as §1
# [17] = target: Neu5Ac(b2-6)Gal(b1-4)GlcNAc
# How it was run: as §1
# Neu5Ac(b2-6)GalNAc = target: Neu5Ac(b2-6)GalNAc
# How it was run: as §1
# [18] = target: Neu5Ac9Ac(a2-6)Gal(b1-4)GlcNAc
# How it was run: as §1
# [19] = target: Neu5Gc(a2-3)Gal(b1-3)GlcNAc
# How it was run: as §1
# [20] = target: Neu5Gc(a2-3)Gal(b1-3)[Fuc(a1-4)]GlcNAc
# How it was run: as §1
# Neu5Gc(a2-3)Gal(b1-4)Glc = target: Neu5Gc(a2-3)Gal(b1-4)Glc
# How it was run: as §1
# [21] = target: Neu5Gc(a2-3)Gal(b1-4)GlcNAc
# How it was run: as §1
# [22] = target: Neu5Gc(a2-3)Gal(b1-4)[Fuc(a1-3)]GlcNAc
# How it was run: as §1
# [23] = target: Neu5Gc(a2-6)Gal(b1-4)GlcNAc
# How it was run: as §1
# Neu5Gc(a2-6)GalNAc = target: Neu5Gc(a2-6)GalNAc
# How it was run: as §1
binder,measurement,setting,value
B1,glycan array binding signal (z-score),Neu5Ac(a2-3)GalNAc,-0.36
same,glycan array binding signal (z-score),[1],-0.32
same,glycan array binding signal (z-score),[2],-0.35
same,glycan array binding signal (z-score),[3],0.017
same,glycan array binding signal (z-score),[4],-0.095
same,glycan array binding signal (z-score),Neu5Ac(a2-6)Gal,-0.278
same,glycan array binding signal (z-score),Neu5Ac(a2-6)Gal(b1-4)Glc,-0.153
same,glycan array binding signal (z-score),[5],-0.056
same,glycan array binding signal (z-score),[6],0.032
same,glycan array binding signal (z-score),[7],-0.232
same,glycan array binding signal (z-score),[8],-0.109
same,glycan array binding signal (z-score),[9],-0.002
same,glycan array binding signal (z-score),Neu5Ac(a2-6)GalNAc,-0.238
same,glycan array binding signal (z-score),[10],-0.245
same,glycan array binding signal (z-score),Neu5Ac(a2-8)Neu5Ac,-0.457
same,glycan array binding signal (z-score),[11],-0.257
same,glycan array binding signal (z-score),[12],-0.532
same,glycan array binding signal (z-score),[13],-0.337
same,glycan array binding signal (z-score),[14],-0.498
same,glycan array binding signal (z-score),[15],-0.425
same,glycan array binding signal (z-score),[16],-0.351
same,glycan array binding signal (z-score),[17],-0.167
same,glycan array binding signal (z-score),Neu5Ac(b2-6)GalNAc,-0.258
same,glycan array binding signal (z-score),[18],-0.441
same,glycan array binding signal (z-score),[19],-0.207
same,glycan array binding signal (z-score),[20],0.043
same,glycan array binding signal (z-score),Neu5Gc(a2-3)Gal(b1-4)Glc,0.255
same,glycan array binding signal (z-score),[21],0.062
same,glycan array binding signal (z-score),[22],-0.112
same,glycan array binding signal (z-score),[23],0.224
same,glycan array binding signal (z-score),Neu5Gc(a2-6)GalNAc,0.397

# 2 entries from above, as tab-separated lines.
binder	measurement	setting	value
B1	glycan array binding signal (z-score)	Neu5Ac(a2-6)Gal(b1-4)Glc	-0.153
same	glycan array binding signal (z-score)	Neu5Ac(a2-6)GalNAc	-0.238
